These are yes or no findings as the source states them, for the method shown. In cells and extracts the contact can be indirect. A yes stands for co-enrichment or nearness to the bait. Other partners may have been found.
Target: full length (p42) C/EBPα^R35A fused to the biotin ligase TurboID (UniProt P05554)
Assay: proximity labelling; C/EBPα-TurboID fusions in Cebpa/Cebpb double knockout mouse pre-B cell line; Dox 6 hr, 500 µM biotin 30 min; biotinylated proteins pulled down, LC-MS/MS; TurboID only as control

The chains behind the UniProt entries cited, without tags or fusion partners. Where a name states a change or a piece, a line headed by the entry shows the natural chain unless it says otherwise.
UniProt P05554: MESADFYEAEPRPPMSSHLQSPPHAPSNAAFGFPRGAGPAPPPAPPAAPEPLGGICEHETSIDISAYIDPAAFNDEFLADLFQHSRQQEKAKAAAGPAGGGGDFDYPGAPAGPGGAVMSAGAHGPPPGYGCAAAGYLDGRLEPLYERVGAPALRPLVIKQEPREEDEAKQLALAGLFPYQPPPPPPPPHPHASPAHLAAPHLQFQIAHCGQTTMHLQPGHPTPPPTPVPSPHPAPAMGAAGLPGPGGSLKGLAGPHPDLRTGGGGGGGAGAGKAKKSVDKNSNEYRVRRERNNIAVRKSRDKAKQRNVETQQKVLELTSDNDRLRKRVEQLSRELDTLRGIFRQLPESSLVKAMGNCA
UniProt Q60974: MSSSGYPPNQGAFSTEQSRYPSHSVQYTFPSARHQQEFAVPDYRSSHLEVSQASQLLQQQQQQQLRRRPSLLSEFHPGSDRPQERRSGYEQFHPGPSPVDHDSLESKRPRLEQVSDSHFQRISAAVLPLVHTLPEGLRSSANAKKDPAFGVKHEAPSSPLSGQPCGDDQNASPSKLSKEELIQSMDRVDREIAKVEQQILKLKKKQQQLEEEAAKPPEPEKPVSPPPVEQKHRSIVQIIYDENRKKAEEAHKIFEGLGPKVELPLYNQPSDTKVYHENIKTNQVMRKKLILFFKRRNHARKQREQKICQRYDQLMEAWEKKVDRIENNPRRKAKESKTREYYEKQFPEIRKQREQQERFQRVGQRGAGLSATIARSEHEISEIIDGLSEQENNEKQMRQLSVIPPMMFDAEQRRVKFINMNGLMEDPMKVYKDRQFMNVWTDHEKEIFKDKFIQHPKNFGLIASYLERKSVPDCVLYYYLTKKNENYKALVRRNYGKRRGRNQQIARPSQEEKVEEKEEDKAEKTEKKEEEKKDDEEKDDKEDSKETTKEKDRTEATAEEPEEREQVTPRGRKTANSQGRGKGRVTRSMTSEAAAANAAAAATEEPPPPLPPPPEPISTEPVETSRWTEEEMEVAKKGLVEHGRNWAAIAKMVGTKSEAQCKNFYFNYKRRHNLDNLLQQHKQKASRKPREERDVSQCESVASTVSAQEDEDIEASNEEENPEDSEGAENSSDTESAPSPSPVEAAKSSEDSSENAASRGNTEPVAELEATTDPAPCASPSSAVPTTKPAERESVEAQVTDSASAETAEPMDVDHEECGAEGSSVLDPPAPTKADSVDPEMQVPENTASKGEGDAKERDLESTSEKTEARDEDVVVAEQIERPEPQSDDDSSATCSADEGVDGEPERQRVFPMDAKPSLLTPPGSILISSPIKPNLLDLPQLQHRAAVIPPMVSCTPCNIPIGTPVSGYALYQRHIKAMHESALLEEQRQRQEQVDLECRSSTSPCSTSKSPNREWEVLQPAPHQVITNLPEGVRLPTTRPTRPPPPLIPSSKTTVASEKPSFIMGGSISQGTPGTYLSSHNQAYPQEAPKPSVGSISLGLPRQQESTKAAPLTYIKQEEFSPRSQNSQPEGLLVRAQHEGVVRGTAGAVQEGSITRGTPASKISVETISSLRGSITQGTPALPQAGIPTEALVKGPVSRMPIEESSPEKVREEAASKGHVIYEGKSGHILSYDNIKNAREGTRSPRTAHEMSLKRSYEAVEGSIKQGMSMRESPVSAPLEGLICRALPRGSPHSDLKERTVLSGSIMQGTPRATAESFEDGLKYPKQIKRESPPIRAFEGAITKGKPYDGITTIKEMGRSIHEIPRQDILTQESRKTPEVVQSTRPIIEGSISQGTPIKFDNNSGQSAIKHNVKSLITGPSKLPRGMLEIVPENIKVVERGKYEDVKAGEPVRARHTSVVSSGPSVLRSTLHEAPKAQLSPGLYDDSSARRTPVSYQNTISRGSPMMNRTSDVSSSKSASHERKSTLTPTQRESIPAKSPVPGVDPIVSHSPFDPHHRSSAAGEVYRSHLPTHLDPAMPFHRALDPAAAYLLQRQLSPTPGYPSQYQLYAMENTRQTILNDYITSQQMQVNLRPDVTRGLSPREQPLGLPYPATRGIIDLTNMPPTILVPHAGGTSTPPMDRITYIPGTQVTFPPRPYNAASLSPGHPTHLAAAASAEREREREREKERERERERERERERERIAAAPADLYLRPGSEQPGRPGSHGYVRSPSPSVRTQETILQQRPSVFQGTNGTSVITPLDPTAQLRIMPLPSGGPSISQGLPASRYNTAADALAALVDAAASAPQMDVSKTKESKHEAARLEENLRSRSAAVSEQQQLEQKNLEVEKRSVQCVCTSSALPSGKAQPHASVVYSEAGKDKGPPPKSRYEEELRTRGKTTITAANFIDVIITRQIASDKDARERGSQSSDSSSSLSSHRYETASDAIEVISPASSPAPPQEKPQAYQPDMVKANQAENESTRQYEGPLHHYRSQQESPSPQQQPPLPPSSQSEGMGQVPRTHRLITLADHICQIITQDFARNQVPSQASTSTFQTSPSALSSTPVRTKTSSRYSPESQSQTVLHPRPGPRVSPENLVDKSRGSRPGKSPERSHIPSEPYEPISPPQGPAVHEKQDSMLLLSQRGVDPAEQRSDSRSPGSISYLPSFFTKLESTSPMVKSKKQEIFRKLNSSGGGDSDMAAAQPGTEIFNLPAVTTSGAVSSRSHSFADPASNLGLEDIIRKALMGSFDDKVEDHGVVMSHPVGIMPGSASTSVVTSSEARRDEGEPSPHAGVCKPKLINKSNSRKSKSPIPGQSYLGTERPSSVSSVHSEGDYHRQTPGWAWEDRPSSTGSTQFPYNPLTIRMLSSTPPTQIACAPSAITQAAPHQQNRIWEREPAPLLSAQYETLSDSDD

Row | binding | Molecule
1 | binds | Ncor1 (from UniProt Q60974 1-2453)
2 | binds | Ebf1 (protein, UniProt Q07802 1-591) MFGIQESIQRSGSSMKEEPLGSGMNAVRTWMQGAGVLDANTAAQSGVGLARAHFEKQPPSNLRKSNFFHFVLALYDRQGQPVEIERTAFVGFVEKEKEANSEKTNNGIHYRLQLLYSNGIRTEQDFYVRLIDSMTKQAIVYEGQDKNPEMCRVLLTHEIMCSRCCDKKSCGNRNETPSDPVIIDRFFLKFFLKCNQNCLKNAGNPRDMRRFQVVVSTTVNVDGHVLAVSDNMFVHNNSKHGRRARRLDPSEGTPSYLEHATPCIKAISPSEGWTTGGATVIIIGDNFFDGLQVIFGTMLVWSELITPHAIRVQTPPRHIPGVVEVTLSYKSKQFCKGTPGRFIYTALNEPTIDYGFQRLQKVIPRHPGDPERLPKEVILKRAADLVEALYGMPHNNQEIILKRAADIAEALYSVPRNHNQLPALANTSVHAGMMGVNSFSGQLAVNVSEASQATNQGFTRNSSSVSPHGYVPSTTPQQTNYNSVTTSMNGYGSAAMSNLGGSPTFLNGSAANSPYAIVPSSPTMASSTSLPSNCSSSSGIFSFSPANMVSAVKQKSAFAPVVRPQTSPPPTCTSTNGNSLQAISGMIVPPM

From paper PMC10299824
